Part of at least one peptide drawing is inferred or uncertain, most often the ends.
Experiment: Partition coefficients n-octanol/deionized water and n-octanol/PBS
Type: physicochemical
Details: 24 hours; for Log KOPBS / O/PBS Coefficient (KOPBS): n-octanol/PBS pH 7.4, 37° C.; for Log KOW / O/W Coefficient (KOW): n-octanol/deionized water, 37° C.
Protocol: The partition coefficients for all somatostatin-fatty acid salts in either n-octanol/deionized water or n-octanol/PBS (pH 7.4) were determined. The partition coefficient is the concentration of Compound A or Compound B in the n-octanol phase divided by the concentration in the aqueous or PBS phase.
An accurately weighed sample of each salt was placed into 4 ml HPLC vials sealed with caps containing pierceable silicone septa and dissolved in 2 ml n-octanol. Two ml of either deionized water or PBS were added to each sample; the vials were vortexed vigorously and incubated at 37° C. with agitation for 24 hours in a shaker-incubator at 400 rpm.
Following incubation, two samples were withdrawn from each vial. Once the layers had fully partitioned, a syringe was used to draw a sample of the aqueous phase or the n-octanol phase. Samples from each phase were diluted appropriately with deionized or methanol prior to HPLC analysis.

| SMILES | Log KOPBS | O/PBS Coefficient (KOPBS) | Log KOW | O/W Coefficient (KOW) |
| --- | --- | --- | --- | --- |
| CC(C)[C@@H]1NC(=O)[C@H](CCCCN)NC(=O)[C@@H](Cc2c[nH]c3ccccc23)NC(=O)[C@H](Cc2ccc(O)cc2)NC(=O)[C@@H](NC(=O)[C@H](N)Cc2ccc3ccccc3c2)CSSC[C@@H](C(=O)N[C@H](C(N)=O)[C@@H](C)O)NC1=O [Compound A di-acetate, D-2-Nal-c(Cys-Tyr-D-Trp-Lys-Val-Cys)-Thr-NH2, reference compound] | 0.352 | 2.25 | −0.301 | 0.50 |
| CC(C)[C@@H]1NC(=O)[C@H](CCCCN)NC(=O)[C@@H](Cc2c[nH]c3ccccc23)NC(=O)[C@H](Cc2ccc(O)cc2)NC(=O)[C@@H](NC(=O)[C@H](N)Cc2ccc3ccccc3c2)CSSC[C@@H](C(=O)N[C@H](C(N)=O)[C@@H](C)O)NC1=O [Compound A di-oleate, D-2-Nal-c(Cys-Tyr-D-Trp-Lys-Val-Cys)-Thr-NH2] | 0.723 | 5.29 | 2.777 | 598.14 |
